Assay results published in article PMC5046071.
Results are given in words; binding and its absence hold for the method and conditions named.

Chains of the proteins cited; added tags and fusions are not shown. Lines headed by an entry give the natural chain unless they say otherwise; changes in a name come on top.
UniProt P14713: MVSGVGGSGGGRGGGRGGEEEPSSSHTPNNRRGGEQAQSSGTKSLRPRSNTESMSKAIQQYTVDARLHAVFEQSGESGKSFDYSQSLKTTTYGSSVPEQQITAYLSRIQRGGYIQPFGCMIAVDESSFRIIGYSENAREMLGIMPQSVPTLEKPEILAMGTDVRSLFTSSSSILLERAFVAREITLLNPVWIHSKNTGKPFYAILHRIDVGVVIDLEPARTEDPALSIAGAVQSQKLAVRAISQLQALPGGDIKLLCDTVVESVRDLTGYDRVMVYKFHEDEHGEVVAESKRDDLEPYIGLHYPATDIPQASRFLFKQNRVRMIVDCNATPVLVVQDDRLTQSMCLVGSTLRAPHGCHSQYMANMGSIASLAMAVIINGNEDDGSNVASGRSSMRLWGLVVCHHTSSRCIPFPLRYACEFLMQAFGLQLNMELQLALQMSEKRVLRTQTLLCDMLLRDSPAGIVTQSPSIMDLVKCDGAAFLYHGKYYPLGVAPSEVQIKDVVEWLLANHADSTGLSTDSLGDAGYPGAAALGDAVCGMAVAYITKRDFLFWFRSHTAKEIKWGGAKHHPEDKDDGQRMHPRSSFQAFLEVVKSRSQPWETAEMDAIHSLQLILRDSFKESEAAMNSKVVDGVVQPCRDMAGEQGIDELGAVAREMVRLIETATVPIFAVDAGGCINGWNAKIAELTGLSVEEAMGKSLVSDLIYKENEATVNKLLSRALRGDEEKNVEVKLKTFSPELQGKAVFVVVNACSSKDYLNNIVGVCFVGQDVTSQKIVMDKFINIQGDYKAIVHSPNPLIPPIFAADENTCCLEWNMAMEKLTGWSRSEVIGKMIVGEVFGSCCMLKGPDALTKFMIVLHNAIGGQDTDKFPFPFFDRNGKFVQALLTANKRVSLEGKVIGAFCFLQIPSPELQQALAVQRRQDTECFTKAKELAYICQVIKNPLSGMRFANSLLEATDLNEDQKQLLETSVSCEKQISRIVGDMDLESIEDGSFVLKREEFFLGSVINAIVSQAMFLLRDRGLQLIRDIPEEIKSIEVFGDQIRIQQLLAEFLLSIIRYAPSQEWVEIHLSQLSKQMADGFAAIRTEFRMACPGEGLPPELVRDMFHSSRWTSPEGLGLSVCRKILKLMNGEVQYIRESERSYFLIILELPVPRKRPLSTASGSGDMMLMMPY

How the values were obtained:
[1] = molecular target: Arabidopsis thaliana phytochrome B (1–651; WT), photosensory module with N-terminal extension, holo form with PCB (Arabidopsis thaliana) (UniProt P14713); assay: native MS; nano-electrospray, Waters Synapt G2-S; buffer exchanged into 50 mM Tris pH 7.8, 5 mM EDTA, 1 mM β-mercaptoethanol at 4 °C directly before analysis; self-association tested; both purified
[2] = molecular target: Arabidopsis thaliana phytochrome B (1–651; WT), photosensory module with N-terminal extension, holo form with PCB (Arabidopsis thaliana) (UniProt P14713); assay: SEC; Superdex 200 26/60, 2 mL/min, 50 mM Tris pH 7.8, 5 mM EDTA, 100 mM NaCl, 1 mM β-mercaptoethanol; apparent against calculated mass; self-association tested; both purified
[3] = molecular target: Arabidopsis thaliana phytochrome B ΔNTE (90–651), lacking the N-terminal extension, holo form with PCB (Arabidopsis thaliana) (UniProt P14713); assay: native MS; nano-electrospray, Waters Synapt G2-S; buffer exchanged into 50 mM Tris pH 7.8, 5 mM EDTA, 1 mM β-mercaptoethanol at 4 °C directly before analysis; self-association tested; both purified
[4] = molecular target: Arabidopsis thaliana phytochrome B ΔNTE (90–651), lacking the N-terminal extension, holo form with PCB (Arabidopsis thaliana) (UniProt P14713); assay: SEC; Superdex 200 26/60, 2 mL/min, 50 mM Tris pH 7.8, 5 mM EDTA, 100 mM NaCl, 1 mM β-mercaptoethanol; apparent against calculated mass; self-association tested; both purified

## Arabidopsis thaliana phytochrome B (1–651; WT), photosensory module with N-terminal extension, holo form with PCB (from UniProt P14713 1-651) (domain or fragment)
[1]
  binding: no binding
[2]
  binding: no binding

## Arabidopsis thaliana phytochrome B ΔNTE (90–651), lacking the N-terminal extension, holo form with PCB (from UniProt P14713 90-651) (domain or fragment)
[3]
  binding: no binding
[4]
  binding: no binding
